From PubChem BioAssay AID1745846 (National Center for Advancing Translational Sciences (NCATS), 2022)
Screen size: about 1,400 compounds; about 30 (2%) were called active. Inconclusive results (about 15%) are left out. The call rests on the fitted dose curve; in most records, active means well fitted inhibition curve with a large enough effect; inconclusive means small, poorly fitted or top-dose-only effect; inactive means flat fitted curve, though single readings scatter. This is one part of the list.

Test: Firefly Luciferase Counterscreen for Inhibitors of ATXN expression
Conditions: luminescence; series mostly up to 57.5 µM; activity change, negative = inhibition: at the top concentration
Outline: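 Recombinant firefly luciferase at 10 nM final in 50 mM Tris pH 7.5, 10 mM MgCl2, 0.05% BSA, 0.01% Tween20 with substrate; compounds up to 57 uM final, 10 min room temperature, end-point luminescence. Buffer-only wells define 100% inhibition.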
On the % scale 0 is the no-effect control and ±100 the full control effect.

SMILES	activity change, negative = inhibition
CCOP(=O)(OCC)C(Cc1ccccc1)N=C(c1ccccc1)c1ccccc1 (configuration not stated)	inactive: -1.67%
O=C(CCCN1C(=O)/C(=C/c2ccccc2Cl)SC1=S)NNC(=O)c1ccc(Cl)cc1Cl	inactive: 4.34%
CCOC(=O)C1=CCN(S(=O)(=O)c2ccc(C)cc2)C1c1cccc(Cl)c1 (configuration not stated)	inactive: -2.12%
Oc1c(CN2CCCCC2)ccc2cccnc12	inactive: 2.91%
NS(=O)(=O)c1ccc(N2N=C(c3ccccc3)CC2c2cccc(Br)c2)cc1 (configuration not stated)	inactive: -3.13%
Cc1cccc(C(=O)N/N=C2\CS(=O)(=O)N(C)c3ccsc32)c1	inactive: -9.38%
Cc1nn(Cc2ccc(Cl)cc2)c(C)c1NC(=O)c1noc2c1CCc1ccccc1-2	inactive: -2.34%
COc1cc(C#Cc2c(-c3cncn3C)n(C)c3ccc(-c4cc(OC)c(OC)c(OC)c4)cc23)cc(OC)c1	inactive: -8.96%
Cn1c(CCN2CCN(c3ccccn3)CC2)nc2cc(NC(=O)COc3ccc(Cl)cc3)ccc21	inactive: -7.6%
O=C(Nc1ccc(OCC(F)(F)C(F)F)c(C(F)(F)F)c1)c1ccc(Cl)cc1	inactive: -10.6%
CCOC(=O)c1c(-c2ccccc2)oc2ccc(OCC(=O)NN)cc12	inactive: -4.12%
COc1cc(C=CC(=O)c2ccccc2)cc(OC)c1OC	inactive: -13%
Cc1ccc2c(Cl)cc(Cl)c(O)c2n1	inactive: -14.1%
O=C(NCc1cc(C(F)(F)F)ccc1Cl)c1cccc2c1C(=O)c1ccc(N3CCC(N4CCCCC4)CC3)cc1S2(=O)=O	inactive: -8.15%
CCc1nc2ccccc2c(C(=O)OCC(=O)Nc2cccc(S(=O)(=O)NC3=NCCCCC3)c2)c1C	inactive: -8.93%
CCn1cc(C(=O)NCc2cccc(F)c2)c(=O)c2cc(F)c(N3CCN(C(=O)c4ccco4)CC3)cc21	inactive: -6.14%
COc1cccc(NC(=O)/C=C/c2ccc(S(=O)(=O)N3CCOCC3)cc2)c1	inactive: -7.17%
Cc1ccc(-c2cc(C(=O)N/N=C/c3ccccc3O)n[nH]2)o1	inactive: -9.4%
Cc1ccc(C(NC(=O)C2CCN(Cc3ccc(Cl)c(Cl)c3)CC2)c2ccccn2)cc1 (configuration not stated)	inactive: -2.96%
NC(=O)N/N=C/c1c(O)ccc2oc3c(c12)CCCC3	inactive: -6.32%
Cc1nc(-c2c(C(F)(F)F)noc2-c2ccc(O)cc2O)cs1	inactive: -4.16%
COc1ccc(CNC(=O)c2ccc(-c3cccnc3)c3ccoc23)cc1OC	inactive: -13.5%

2 records drawn at random from the list so far, as already listed:
SMILES	activity change, negative = inhibition
COc1cccc(NC(=O)/C=C/c2ccc(S(=O)(=O)N3CCOCC3)cc2)c1	inactive: -7.17%
Cc1ccc(C(NC(=O)C2CCN(Cc3ccc(Cl)c(Cl)c3)CC2)c2ccccn2)cc1 (configuration not stated)	inactive: -2.96%
